PubChem BioAssay AID1347076 (National Center for Advancing Translational Sciences (NCATS), 2019)
Hit rate of the full screen: of about 400,000 compounds, about 13,000 (3.2%) were called active. Inconclusive results, whose numbers are uncertain, are shown with a selection of clear calls. Calls follow the shape of the dose curve; as a rule, active = well fitted cell-killing curve with a large enough effect; inconclusive = small, poorly fitted or top-dose-only effect, or effect the other way; inactive = flat fitted curve, though single readings scatter. Where the call is inconclusive, the potency comes from a doubtful curve fit.
% is scaled to controls: 0 for no effect and ±100 for the full control effect; potency is read from the fitted curve at half-maximal effect.

Experiment: qHTS assay for MDR1-selective chemotherapeutics: Primary screen using the drug-selected MDR subline cells KB-V1; also: nearly all actives have a fitted effect of over 60% in size
Conditions: KB-V1 MDR cells viability, CellTiter-Glo, 72 h; activity change, negative = cytotoxicity: at 46.1 µM (top of the series)
Outline: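 In this primary screen, KB-V1 cells overexpressing P-gp are incubated with library compounds (lowest to highest concentration) for 72 h at 37 degrees C before a luminescent ATP viability read.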
For `N#Cc1ccccc1CN1C(=O)c2ccccc2Sc2ccc(C(=O)OCc3ccco3)cc21`, the Potency was inconclusive: 10.3 µM [cytotoxic, partial curve, poor fit].
With `C[C@@H]1CN([C@@H](C)CO)C(=O)CCCn2nncc2CO[C@H]1CN(C)C(=O)c1ccncc1` the Potency was inconclusive: 0.651 µM [rising, full curve].
In the case of `COCCNC(=O)c1n[nH]c2ccccc12`, the Potency is reported as inconclusive: 20.6 µM [rising, single point].
In the case of `COc1ccc([C@H]2C[C@@H](O)[C@H](n3cc(C4CC4)nn3)CN2C(=O)C2CCCCC2)cc1`, the “activity change, negative = cytotoxicity” value is reported as inactive: -10.3%.
In the case of `C/C(=N\NC(=O)c1c(Cl)c(C)nn1C)c1ccc(NC(=O)COc2ccc(Cl)cc2C)cc1`, the “activity change, negative = cytotoxicity” value is reported as inactive: -13.2%.
With `O=C(O)c1ccc2oc(=O)c(S(=O)(=O)c3ccc(F)cc3)cc2c1` the “activity change, negative = cytotoxicity” value was inactive: 11.9%.
In the case of `OC(c1ccc(-c2ccccc2)cc1)c1ncc(-c2cccc(F)c2)[nH]1` (centres undefined), the “activity change, negative = cytotoxicity” value is reported as inactive: 4.7%.
With `O=C(CN1C(=O)NC(c2ccccc2)(c2ccccc2)C1=O)NC1CCS(=O)(=O)C1` (centres undefined) the Potency was inconclusive: 8.2 µM [rising, single point].
For `COc1cccc(C(c2nnnn2-c2c(C)cccc2C)N2CCN(C/C=C/c3ccccc3)CC2)c1OC` (centres undefined), the Potency was inconclusive: 14.6 µM [cytotoxic, partial curve, poor fit].
For `Fc1ccccc1-c1nc(NCCCN2CCOCC2)c2ccccc2n1`, the Potency was inconclusive: 6.51 µM [cytotoxic, partial curve].
For `CCn1c(Cc2ccccc2)nnc1SCc1ccc([N+](=O)[O-])cc1`, the Potency was inconclusive: 23.1 µM [cytotoxic, single point].
For `CCC(CC)C(=O)Nc1cc([N+](=O)[O-])ccc1Cl`, the Potency was inconclusive: 29.1 µM [cytotoxic, single point].
With `Cc1cc(C(=O)COC(=O)c2ccco2)c(C)n1Cc1ccco1` the “activity change, negative = cytotoxicity” value was inactive: 11.6%.
For `OCCc1ccc(O)c(-n2nc3ccccc3n2)c1`, the Potency was inconclusive: 16.4 µM [rising, partial curve, poor fit].
For `Cc1nn(-c2ccccc2)c(C)c1NC(=O)COc1ccc(F)cc1Cl`, the Potency was inconclusive: 20.6 µM [cytotoxic, partial curve, poor fit].
With `CCCCOc1ccc(/C=C/C(=O)OCC(=O)NC(=O)NCC(C)C)cc1OCC` the Potency was inconclusive: 20.6 µM [cytotoxic, single point].
For `COc1cc(NC(=O)c2ccc(F)cc2)c(OC)cc1Cl`, the “activity change, negative = cytotoxicity” value was inactive: 1.67%.
For `Cc1ccc2nc3c(c(Nc4ccccc4)c2c1)CCC3`, the Potency was inconclusive: 7.31 µM [cytotoxic, partial curve].
In the case of `COC(=O)C1=NN[C@H](C(=O)OC(C)(C)C)[C@H]1c1ccccc1`, the activity change, negative = cytotoxicity is reported as inconclusive: -40.9%.
